Results are given in words; binding and its absence hold for the method and conditions named. Binding seen in cells or lysates may run through a third protein. Here binding means that the protein was enriched with, or labelled near, the bait; the list need not be complete.
B1: FLXL1 (protein, UniProt Q93V84 1-331)
chain: MSGRNRGPPPPSMKGGSYSGLQAPVHQPPFVRGLGGGPVPPPPHPSMIDDSREPQFRVDARGLPPQFSILEDRLAAQNQDVQGLLADNQRLAATHVALKQELEVAQHELQRIMHYIDSLRAEEEIMMREMYDKSMRSEMELREVDAMRAEIQKIRADIKEFTSGRQELTSQVHLMTQDLARLTADLQQIPTLTAEIENTKQELQRARAAIDYEKKGYAENYEHGKIMEHKLVAMARELEKLRAEIANSETSAYANGPVGNPGGVAYGGGYGNPEAGYPVNPYQPNYTMNPAQTGVVGYYPPPYGPQAAWAGGYDPQQQQQQQPPPQGQGHR
B2: MLN51 (protein, UniProt Q93ZJ9 1-605)
chain: MAPDGVEDSDYESDPDELNRSLATRRREASDDDEDDEEADDHDKLRAAIQIHSDEHSGVVVVDSDDNEGLHIEDSYGDDDDEEEDGDYGQVDDHVEYIADNNDKTIVAGNGTDDSAATDLVDGEEQKKKEPFAVPTAGAFYMHDDRFQELDAASNRRMRGGRRLWQSRDERKWGHDKFEEMNTQKQQYDRRTSRGRGRGRGQGRGQDRGQSRGNNSKEFTGNGHQNQFPKAVTRGRGARRYEVALRNGNQAPSVQTKQSQNSSVEVSHVDLGRPPTETATLETEAIQAKKNVFASSLNSASPPFYPSRSNNNLAQKDVQAGMGRLHINENPNPTGKKFGNTKSSSLWGRTAQTTSHGRGVPPHGQVLYQQSPNQGDKVSSPMQIRGMPKGTDQSCTQLPGQVFNQHSAVISLLPSSPPKTGSSENPYLSGEIESAVETGALVAKGKGSLQPSGRGSFMYGGTQFMGPAGMAAGHGNPNFPAFLPVMQFGGQHGGVPTFGMALPGYFQPEHGTGNPEMTWLPILAGPGALGGSYCPPYTVLDGSYQADKPGLPSSAGSSSQENSSNNPNDEEPMERPEVTNNGNSQRSNSNPNKQPRRYSEMSFSK
B3: SOSEKI3 (protein, UniProt Q8GYT8 1-540)
chain: MEARMKKYSREVSPERAKVWTEKSPKYHQKIKKVQIVYYLSKNRQLEHPHFMEVLISSPNGLYLRDVIERLNVLRGRGMASMYSWSSKRSYRNGFVWHDLSEDDLILPANGNEYVLKGSELFDESNSDHFSPIVNLATQNMKQIVVEPPSSRSMDDSSSSSSMNNGKGTNKHSHEDDELSPPALRSVSSSGVSPDSRDAKNSSSWCLAEYKVYKSEGLADASTQTDETVSGRSKTPIETFSRGVSTDEDVSSEPETSENNLVSEASCAGKERESAEISRNSVSPPFSNSASSLGGKTDTLESLIRADVSKMNSFRILEQEDVRMPAIPRLRASNMLMQLISCGSISVKDNNFGLVPTYKPKFGHSKFPSPFFSSSFMMGDLDRLSETPSLMGLRMEEKEYFSGSLVETKLQKKDAADSNASLKRSSSYNGDRASNQMGVAENGDSKPDSSKNNPSSRKASSILGKQQPLVSEKRRDSSEDTTKNIPCTTKTHDACSKRITESLRKPDSFREDEERVIKIDERLASGARVRIESKVPSEEP
B4: VAP27-1 (protein, UniProt Q8VZ95 1-256)
chain: MSNIDLIGMSNRDLIGMSNSELLTVEPLDLQFPFELKKQISCSLYLTNKTDNNVAFKVKTTNPKKYCVRPNTGVVLPRSTCEVLVTMQAQKEAPSDMQCKDKFLLQGVIASPGVTAKEVTPEMFSKEAGHRVEETKLRVTYVAPPRPPSPVHEGSEEGSSPRASVSDNGHGSEFSFERFIVDNKAGHQENTSEARALITKLTEEKQSAIQLNNRLQRELDQLRRESKKSQSGGIPFMYVLLVGLIGLILGYIMKRT

Target: DCP1-TurboID-6xHis-3xFLAG (Arabidopsis)
Test: proximity labelling

binding	Binder
binds	B1
binds	B2
binds	B3
binds	B4

From paper doi:10.1101/2022.06.03.494746
